From the M2OR odorant receptor database
The entries are a selection whose mix differs from that of the whole data set. The calls were merged from several studies; some rest on single wells.

Columns and labels:
Details in all cases: stereoisomer not certain
[1] = target: T1, OR10T2 (Homo sapiens) (UniProt Q8NGX3)
T1 sequence (whole entry): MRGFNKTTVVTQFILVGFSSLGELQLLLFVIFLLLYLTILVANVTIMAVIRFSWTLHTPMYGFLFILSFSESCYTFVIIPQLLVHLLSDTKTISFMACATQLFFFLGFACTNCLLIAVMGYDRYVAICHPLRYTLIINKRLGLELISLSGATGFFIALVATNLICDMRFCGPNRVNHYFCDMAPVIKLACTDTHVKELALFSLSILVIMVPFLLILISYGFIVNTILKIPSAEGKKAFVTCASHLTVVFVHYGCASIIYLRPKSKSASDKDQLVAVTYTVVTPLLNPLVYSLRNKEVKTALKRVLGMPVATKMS
In short: (§1)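 Whether a receptor–molecule pair is responsive (active) rests on the original authors' judgment that its measured signal was statistically different from baseline. Pairs without that judgment are non-responsive (inactive). Sources used varied assay methods, commonly transient luciferase assays in mammalian cell lines.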

[2] = target: T2, OR10X1 (Homo sapiens) (UniProt Q8NGY0)
T2 sequence (whole entry): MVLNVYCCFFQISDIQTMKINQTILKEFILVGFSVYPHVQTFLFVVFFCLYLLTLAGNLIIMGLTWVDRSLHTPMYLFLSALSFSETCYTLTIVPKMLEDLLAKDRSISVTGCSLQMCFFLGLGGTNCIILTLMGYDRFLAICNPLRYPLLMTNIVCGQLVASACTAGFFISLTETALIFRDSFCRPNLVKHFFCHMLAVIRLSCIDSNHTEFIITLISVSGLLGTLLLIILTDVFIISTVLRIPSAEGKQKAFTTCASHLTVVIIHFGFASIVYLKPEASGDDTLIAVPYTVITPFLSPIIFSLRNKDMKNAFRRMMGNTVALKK
In short: as §1

[3] = target: T3, OR10Z1 (Homo sapiens) (UniProt Q8NGY1)
T3 sequence (whole entry): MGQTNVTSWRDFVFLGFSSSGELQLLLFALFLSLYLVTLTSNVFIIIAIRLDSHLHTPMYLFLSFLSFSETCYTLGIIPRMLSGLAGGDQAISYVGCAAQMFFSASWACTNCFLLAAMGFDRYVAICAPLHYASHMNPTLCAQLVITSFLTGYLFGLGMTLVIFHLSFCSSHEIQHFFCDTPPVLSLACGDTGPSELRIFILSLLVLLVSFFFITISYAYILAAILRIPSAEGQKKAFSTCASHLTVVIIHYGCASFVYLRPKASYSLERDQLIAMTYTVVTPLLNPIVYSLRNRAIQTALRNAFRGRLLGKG
In short: as §1

[4] = target: T4, OR11A1 (Homo sapiens) (UniProt Q9GZK7)
T4 sequence (whole entry): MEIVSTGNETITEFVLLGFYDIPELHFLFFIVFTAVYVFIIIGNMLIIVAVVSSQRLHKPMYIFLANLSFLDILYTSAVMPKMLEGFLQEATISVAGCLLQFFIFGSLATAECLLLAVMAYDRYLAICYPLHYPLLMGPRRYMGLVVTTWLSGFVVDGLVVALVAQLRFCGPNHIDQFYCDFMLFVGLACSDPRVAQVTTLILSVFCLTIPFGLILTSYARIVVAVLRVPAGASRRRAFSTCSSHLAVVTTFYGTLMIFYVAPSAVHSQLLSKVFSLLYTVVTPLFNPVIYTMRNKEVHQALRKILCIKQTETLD
In short: as §1

[5] = target: T5, OR11H4 (Homo sapiens) (UniProt Q8NGC9)
T5 sequence (whole entry): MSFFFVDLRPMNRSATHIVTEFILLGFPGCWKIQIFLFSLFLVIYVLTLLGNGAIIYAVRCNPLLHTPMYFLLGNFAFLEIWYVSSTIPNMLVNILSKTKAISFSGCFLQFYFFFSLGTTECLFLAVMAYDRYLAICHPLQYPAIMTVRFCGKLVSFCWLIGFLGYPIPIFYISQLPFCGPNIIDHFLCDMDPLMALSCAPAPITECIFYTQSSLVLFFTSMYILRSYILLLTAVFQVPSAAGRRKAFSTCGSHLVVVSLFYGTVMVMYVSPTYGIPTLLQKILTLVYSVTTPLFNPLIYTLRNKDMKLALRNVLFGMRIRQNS
In short: as §1

[6] = target: T6, OR11H6 (Homo sapiens) (UniProt Q8NGC7)
T6 sequence (whole entry): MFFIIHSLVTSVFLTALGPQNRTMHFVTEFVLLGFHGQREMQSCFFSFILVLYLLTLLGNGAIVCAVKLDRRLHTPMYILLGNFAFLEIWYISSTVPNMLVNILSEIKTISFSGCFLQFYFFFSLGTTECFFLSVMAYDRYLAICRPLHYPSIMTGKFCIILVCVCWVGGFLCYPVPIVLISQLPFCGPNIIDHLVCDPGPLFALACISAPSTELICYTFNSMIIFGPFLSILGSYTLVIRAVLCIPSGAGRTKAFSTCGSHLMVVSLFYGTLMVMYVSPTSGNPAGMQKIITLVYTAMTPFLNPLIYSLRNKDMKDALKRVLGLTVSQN
In short: as §1

[7] = target: T7, OR12D2 (Homo sapiens) (UniProt P58182)
T7 sequence (whole entry): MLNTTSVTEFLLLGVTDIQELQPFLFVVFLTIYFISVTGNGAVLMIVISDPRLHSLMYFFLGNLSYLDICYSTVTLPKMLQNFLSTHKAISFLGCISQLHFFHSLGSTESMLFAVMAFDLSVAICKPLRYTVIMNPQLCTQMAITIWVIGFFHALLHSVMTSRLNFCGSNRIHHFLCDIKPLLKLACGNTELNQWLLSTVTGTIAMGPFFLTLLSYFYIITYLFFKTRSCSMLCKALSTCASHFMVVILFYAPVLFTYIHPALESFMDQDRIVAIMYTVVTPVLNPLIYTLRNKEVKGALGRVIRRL
In short: as §1

[8] = target: T8, OR12D3 (Homo sapiens) (UniProt Q9UGF7)
T8 sequence (whole entry): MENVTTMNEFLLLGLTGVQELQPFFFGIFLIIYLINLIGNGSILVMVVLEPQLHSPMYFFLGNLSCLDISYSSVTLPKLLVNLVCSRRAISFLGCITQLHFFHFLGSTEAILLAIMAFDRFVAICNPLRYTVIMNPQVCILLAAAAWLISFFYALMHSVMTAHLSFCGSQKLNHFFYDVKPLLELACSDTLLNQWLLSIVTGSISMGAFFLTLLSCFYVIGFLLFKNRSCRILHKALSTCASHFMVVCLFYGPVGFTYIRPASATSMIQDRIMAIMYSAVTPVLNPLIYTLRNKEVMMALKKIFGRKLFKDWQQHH
In short: as §1

[9] = target: T9, OR13A1 (Homo sapiens) (UniProt Q8NGR1)
T9 sequence (whole entry): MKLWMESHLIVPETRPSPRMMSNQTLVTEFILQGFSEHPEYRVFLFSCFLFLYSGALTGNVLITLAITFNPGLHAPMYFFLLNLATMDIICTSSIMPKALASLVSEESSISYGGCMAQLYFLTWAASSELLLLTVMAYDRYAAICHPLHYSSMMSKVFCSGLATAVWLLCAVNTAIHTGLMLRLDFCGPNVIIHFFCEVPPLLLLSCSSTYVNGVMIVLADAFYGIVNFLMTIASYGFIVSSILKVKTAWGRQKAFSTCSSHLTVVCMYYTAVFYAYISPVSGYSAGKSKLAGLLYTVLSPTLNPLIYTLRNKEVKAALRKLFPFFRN
In short: as §1

[10] = target: T10, OR13C2 (Homo sapiens) (UniProt Q8NGS9)
T10 sequence (whole entry): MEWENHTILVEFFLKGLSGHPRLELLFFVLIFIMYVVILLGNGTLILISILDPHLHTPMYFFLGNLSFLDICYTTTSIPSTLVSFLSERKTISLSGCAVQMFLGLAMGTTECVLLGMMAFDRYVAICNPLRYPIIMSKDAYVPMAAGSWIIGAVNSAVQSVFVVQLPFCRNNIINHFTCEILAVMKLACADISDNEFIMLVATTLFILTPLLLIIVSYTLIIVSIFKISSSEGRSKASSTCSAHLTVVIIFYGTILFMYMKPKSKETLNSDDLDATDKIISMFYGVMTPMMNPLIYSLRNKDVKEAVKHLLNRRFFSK
In short: as §1

Measured: odorant receptor agonist call;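 note: active if original authors judged signal statistically different from baseline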

CCC(C)=O
inactive: all assays above
